Laboratory results as given in patent US7943141B2, “Activated polyoxazolines and compositions comprising the same” (Serina Therapeutics, Inc., priority 2007, dated 2011).

Test: Degree of protein modification by TNBS assay
Details: conjugated amino groups as percentage of total

B1: POZ/RNAse: ribonuclease A modified with M-PEOZ-O—CH2—CO2—NHS (6 kDa) (conjugate, UniProt P61823 27-150, looked up)
Ribonuclease pancreatic: KETAAAKFERQHMDSSTSAASSSNYCNQMMKSRNLTKDRCKPVNTFVHESLADVQAVCSQKNVACKNGQTNCYQSYSTMSITDCRETGSSKYPNCAYKTTQANKHIIVACEGNPYVPVHFDASV
modifications: M-PEOZ 6 kDa conjugate
NH2:polymer molar ratio 1:1
  % modification: 23%
NH2:polymer molar ratio 2:1
  % modification: 36%

B2: PEG/RNAse: ribonuclease A modified with PEG-O—CH2—CO2—NHS (5.5 kDa) (conjugate, UniProt P61823 27-150, looked up)
Ribonuclease pancreatic: B1 Ribonuclease pancreatic
modifications: PEG 5.5 kDa conjugate
NH2:polymer molar ratio 1:1
  % modification: 60%
NH2:polymer molar ratio 2:1
  % modification: 80%
